Measurements reported in PubChem BioAssay AID1259308 (NCATS, 2017)
Purpose: 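Candidate targets for better recombinant protein yield in mammalian cells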 (primary screen). System: human HEK293 embryonic kidney cells stably expressing firefly luciferase (HEK-CMV-Luc2-Hygro). Reagents: single siRNA against human genes, 0.8 pmol siRNA per well. Duration: 72 h. Read-out: 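Luciferase light (ONE-Glo) measured on one replicate plate set and viability (CellTiter-Glo) on the other, scaled to a negative control siRNA, with robust z-scores and luciferase per cell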. Reading the numbers: total luciferase, z-score and total luciferase, % of control: higher = more reporter protein produced; luciferase per cell, z-score: higher = more reporter output per viable cell. Active means: 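An siRNA counts as active if its total luciferase robust z-score exceeds 3; genes with two or more such siRNAs out of three were retested with fresh siRNAs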. Calls: active = raised luciferase; inactive = no rise.
The deposit covers about 59,000 reagents; shown is a part drawn at random. About 1,510 of them (2.6%) count as active. 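Calls use total luciferase alone and ignore viability, so some active siRNAs may act by altering cell number.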 A number with no mark means an inactive call. The numbers tell different reagents against one gene apart. Further read-outs or replicates are left out here.

| gene | reagent no. | total luciferase, z-score | total luciferase, % of control | luciferase per cell, z-score |
| --- | --- | --- | --- | --- |
| FSTL1 | 1 | -0.408 | 73.8 | -0.507 |
| FSTL1 | 2 | 1.54 | 113 | 1.26 |
| FSTL1 | 3 | -0.124 | 79.4 | 0.281 |
| SCAF1 | 1 | 0.214 | 86.1 | -0.262 |
| SCAF1 | 2 | -0.396 | 74 | -0.351 |
| SCAF1 | 3 | 1.56 | 113 | 1.3 |
| ZNF133 | 1 | 0.732 | 96.4 | 0.332 |
| ZNF133 | 2 | -0.4 | 73.9 | -0.00391 |
| ZNF133 | 3 | -1.45 | 53 | -1.12 |
| BABAM2 | 1 | -0.511 | 71.7 | -0.469 |
| BABAM2 | 2 | -0.605 | 69.9 | -0.157 |
| BABAM2 | 3 | -0.127 | 79.4 | -0.103 |
| TSEN2 | 1 | -0.256 | 76.8 | -0.446 |
| TSEN2 | 2 | 0.934 | 100 | 0.655 |
| TSEN2 | 3 | 5.03 (active) | 182 | 2.91 |
| BEX5 | 1 | -0.0979 | 79.9 | 0.156 |
| BEX5 | 2 | 0.594 | 93.7 | 0.209 |
| BEX5 | 3 | 1.35 | 109 | 0.709 |
| RBM23 | 1 | -1.82 | 45.8 | -1.89 |
| RBM23 | 2 | 0.172 | 85.3 | 0.22 |
| RBM23 | 3 | 2.42 | 130 | 2.48 |
| VAMP7 | 1 | -0.916 | 63.7 | -1.38 |
| VAMP7 | 2 | 0.111 | 84.1 | -0.655 |
| VAMP7 | 3 | 0.0857 | 83.6 | -0.0633 |

Limited to “total luciferase, z-score” (3 entries from above):
SCAF1 #3: 1.56
ZNF133 #1: 0.732
ZNF133 #2: -0.4
